From patent US20070092930A1, “Process for enhanced recovery of crude oil from oil wells using novel microbial consortium” (The Energy and Resources Institute, priority 2003, published 2007)
At least one structure is not confirmed: it was looked up by name or label, or the drawing left a doubt.

Columns and labels:
Format in all cases: cell-based, isolate of consortium MTCC S2-001
Strain No 3 = test: Substrate utilization, Strain No 3; conditions: 90° C.; 0.2 or 0.5% (w/v) substrate; growth recorded after 5, 10 and 15 days
Strain No 2 = test: Substrate utilization, Strain No 2; conditions: 90° C.; 0.2 or 0.5% (w/v) substrate; growth recorded after 5, 10 and 15 days
Strain No 1 = test: Substrate utilization, Strain No 1; conditions: 90° C.; 0.2 or 0.5% (w/v) substrate; growth recorded after 5, 10 and 15 days
Strain 1 (Cocci) = test: Antibiotic sensitivity, Strain 1; conditions: antibiotic 100 ug/mL; inoculated at 80° C.; anaerobic nutrient medium
Strain 2 (Small rods) = test: Antibiotic sensitivity, Strain 2; conditions: antibiotic 100 ug/mL; inoculated at 80° C.; anaerobic nutrient medium
Strain 3 (Long rods) = test: Antibiotic sensitivity, Strain 3; conditions: antibiotic 100 ug/mL; inoculated at 80° C.; anaerobic nutrient medium

SMILES | Substrate Utilization (growth on single carbon source) (Strain No 3) | Substrate Utilization (growth on single carbon source) (Strain No 2) | Substrate Utilization (growth on single carbon source) (Strain No 1) | Antibiotic Sensitivity (Strain 1 (Cocci)) | Antibiotic Sensitivity (Strain 2 (Small rods)) | Antibiotic Sensitivity (Strain 3 (Long rods))
CC(O)C(=O)O (stereo not drawn) [Lactate] | + | + | + |  |  | 
CN[C@@H]1[C@H](O[C@H]2[C@H](O[C@H]3[C@H](O)[C@@H](O)[C@H](N=C(N)N)[C@@H](O)[C@@H]3N=C(N)N)O[C@@H](C)[C@]2(O)C=O)O[C@@H](CO)[C@H](O)[C@H]1O [Strptomycin] |  |  |  | − | − | −
CC1(C)S[C@@H]2[C@H](NC(=O)C(C(=O)O)c3ccccc3)C(=O)N2[C@H]1C(=O)O (stereo partly drawn) [Carbencillin] |  |  |  | + | + | +
